The text below walks through data of the supplement of paper PMC10849652.

Amino acid sequences for entries named in this document (tags omitted). A change or cut given only in a name is not applied to a line headed by its entry.
UniProt Q9Y3L5: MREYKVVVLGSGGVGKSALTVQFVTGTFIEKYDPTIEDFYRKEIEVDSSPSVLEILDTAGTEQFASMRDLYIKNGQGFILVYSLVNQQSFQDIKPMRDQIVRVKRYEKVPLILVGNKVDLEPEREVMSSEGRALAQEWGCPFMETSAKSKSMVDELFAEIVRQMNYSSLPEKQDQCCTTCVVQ
UniProt Q96D70: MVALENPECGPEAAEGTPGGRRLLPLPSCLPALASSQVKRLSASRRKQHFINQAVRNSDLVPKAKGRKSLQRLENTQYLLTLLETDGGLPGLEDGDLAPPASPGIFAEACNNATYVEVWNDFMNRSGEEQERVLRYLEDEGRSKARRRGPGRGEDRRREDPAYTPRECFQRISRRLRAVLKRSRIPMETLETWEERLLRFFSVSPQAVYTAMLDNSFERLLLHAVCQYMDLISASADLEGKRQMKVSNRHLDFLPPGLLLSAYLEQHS
UniProt Q15291, whole entry, looked up: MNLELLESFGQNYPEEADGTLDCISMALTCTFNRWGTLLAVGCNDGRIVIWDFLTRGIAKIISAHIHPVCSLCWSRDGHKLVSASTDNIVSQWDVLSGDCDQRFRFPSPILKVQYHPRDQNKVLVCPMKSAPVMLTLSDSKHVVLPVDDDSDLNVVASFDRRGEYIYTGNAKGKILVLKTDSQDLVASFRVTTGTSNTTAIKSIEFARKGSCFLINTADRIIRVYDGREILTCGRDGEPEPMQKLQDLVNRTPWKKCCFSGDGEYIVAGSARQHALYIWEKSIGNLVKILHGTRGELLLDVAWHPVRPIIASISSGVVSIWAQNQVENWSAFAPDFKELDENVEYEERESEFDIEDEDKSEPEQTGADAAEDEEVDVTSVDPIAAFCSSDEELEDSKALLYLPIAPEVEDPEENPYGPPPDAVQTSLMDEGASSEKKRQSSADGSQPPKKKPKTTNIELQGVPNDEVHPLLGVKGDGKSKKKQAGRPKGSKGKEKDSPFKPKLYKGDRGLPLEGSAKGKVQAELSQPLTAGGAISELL
UniProt Q9H082: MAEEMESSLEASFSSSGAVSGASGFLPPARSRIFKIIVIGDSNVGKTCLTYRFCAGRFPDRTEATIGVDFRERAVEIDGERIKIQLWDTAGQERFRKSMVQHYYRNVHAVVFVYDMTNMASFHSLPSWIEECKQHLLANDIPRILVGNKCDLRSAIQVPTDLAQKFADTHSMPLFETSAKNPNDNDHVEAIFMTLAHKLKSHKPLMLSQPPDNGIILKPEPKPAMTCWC
UniProt Q5T8P6: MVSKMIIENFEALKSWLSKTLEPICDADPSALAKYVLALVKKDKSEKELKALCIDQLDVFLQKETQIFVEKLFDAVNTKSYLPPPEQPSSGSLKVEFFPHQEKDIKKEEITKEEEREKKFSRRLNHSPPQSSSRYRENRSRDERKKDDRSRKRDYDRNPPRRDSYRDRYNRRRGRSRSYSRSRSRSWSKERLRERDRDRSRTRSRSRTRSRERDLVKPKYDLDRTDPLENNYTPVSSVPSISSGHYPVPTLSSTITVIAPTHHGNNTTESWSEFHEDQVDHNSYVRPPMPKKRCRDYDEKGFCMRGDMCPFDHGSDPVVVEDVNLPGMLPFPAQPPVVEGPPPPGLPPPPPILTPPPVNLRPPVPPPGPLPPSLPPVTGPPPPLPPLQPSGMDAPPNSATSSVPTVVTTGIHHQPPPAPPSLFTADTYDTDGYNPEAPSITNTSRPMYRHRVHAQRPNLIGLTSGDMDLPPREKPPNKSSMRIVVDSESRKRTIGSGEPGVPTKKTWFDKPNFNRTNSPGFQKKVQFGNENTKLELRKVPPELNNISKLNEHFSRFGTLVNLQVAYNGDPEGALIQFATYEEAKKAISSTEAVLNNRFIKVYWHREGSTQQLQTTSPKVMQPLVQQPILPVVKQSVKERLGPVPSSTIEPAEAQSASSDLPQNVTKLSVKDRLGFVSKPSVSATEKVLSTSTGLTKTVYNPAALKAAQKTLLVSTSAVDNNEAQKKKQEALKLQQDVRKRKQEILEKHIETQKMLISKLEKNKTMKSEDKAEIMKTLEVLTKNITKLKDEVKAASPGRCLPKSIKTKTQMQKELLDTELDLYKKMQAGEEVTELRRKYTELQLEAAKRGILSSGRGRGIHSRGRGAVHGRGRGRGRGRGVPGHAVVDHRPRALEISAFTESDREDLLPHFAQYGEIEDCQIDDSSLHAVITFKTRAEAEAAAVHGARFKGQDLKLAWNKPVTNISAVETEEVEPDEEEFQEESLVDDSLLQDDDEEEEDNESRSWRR
UniProt O15315: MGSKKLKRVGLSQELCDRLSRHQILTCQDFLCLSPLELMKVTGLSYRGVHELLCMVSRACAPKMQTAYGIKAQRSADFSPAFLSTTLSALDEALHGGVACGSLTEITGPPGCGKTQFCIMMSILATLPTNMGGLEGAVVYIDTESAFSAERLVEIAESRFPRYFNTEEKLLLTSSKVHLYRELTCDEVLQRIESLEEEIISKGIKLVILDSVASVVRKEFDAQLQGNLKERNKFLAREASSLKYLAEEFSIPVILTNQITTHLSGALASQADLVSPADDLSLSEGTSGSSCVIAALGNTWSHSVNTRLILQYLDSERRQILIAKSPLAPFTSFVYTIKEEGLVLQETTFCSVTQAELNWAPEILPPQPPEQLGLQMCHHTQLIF
UniProt P11233: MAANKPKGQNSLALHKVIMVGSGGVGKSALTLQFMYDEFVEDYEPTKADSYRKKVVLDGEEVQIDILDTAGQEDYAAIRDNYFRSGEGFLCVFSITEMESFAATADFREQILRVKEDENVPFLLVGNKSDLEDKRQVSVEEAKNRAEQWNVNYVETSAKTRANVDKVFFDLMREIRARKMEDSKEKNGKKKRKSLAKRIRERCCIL
UniProt Q9P0K7: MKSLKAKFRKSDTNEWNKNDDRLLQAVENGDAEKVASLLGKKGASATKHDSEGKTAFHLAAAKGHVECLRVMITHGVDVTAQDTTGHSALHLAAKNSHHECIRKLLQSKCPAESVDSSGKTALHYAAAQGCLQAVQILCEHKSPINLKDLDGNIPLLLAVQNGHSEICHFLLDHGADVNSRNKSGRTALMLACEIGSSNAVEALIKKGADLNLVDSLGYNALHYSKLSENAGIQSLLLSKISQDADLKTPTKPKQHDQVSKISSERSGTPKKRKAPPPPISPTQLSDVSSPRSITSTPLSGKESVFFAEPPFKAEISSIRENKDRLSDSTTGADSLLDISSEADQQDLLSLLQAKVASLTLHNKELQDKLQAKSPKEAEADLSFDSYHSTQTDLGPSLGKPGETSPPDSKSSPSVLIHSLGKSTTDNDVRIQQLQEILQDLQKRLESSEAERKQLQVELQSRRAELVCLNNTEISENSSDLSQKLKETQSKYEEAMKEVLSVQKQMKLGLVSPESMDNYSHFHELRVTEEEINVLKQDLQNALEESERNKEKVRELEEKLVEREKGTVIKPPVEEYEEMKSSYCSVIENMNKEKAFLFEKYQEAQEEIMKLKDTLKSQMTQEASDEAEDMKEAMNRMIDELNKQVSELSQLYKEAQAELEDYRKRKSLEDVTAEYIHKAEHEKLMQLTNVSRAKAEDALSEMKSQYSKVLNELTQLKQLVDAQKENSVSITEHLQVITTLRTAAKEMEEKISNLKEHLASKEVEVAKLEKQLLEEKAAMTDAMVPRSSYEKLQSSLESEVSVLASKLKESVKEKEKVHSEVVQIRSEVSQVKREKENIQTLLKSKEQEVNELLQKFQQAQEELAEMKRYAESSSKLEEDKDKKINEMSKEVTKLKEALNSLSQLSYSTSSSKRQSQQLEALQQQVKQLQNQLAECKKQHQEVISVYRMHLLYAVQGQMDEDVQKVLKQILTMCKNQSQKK
UniProt Q6WKZ4: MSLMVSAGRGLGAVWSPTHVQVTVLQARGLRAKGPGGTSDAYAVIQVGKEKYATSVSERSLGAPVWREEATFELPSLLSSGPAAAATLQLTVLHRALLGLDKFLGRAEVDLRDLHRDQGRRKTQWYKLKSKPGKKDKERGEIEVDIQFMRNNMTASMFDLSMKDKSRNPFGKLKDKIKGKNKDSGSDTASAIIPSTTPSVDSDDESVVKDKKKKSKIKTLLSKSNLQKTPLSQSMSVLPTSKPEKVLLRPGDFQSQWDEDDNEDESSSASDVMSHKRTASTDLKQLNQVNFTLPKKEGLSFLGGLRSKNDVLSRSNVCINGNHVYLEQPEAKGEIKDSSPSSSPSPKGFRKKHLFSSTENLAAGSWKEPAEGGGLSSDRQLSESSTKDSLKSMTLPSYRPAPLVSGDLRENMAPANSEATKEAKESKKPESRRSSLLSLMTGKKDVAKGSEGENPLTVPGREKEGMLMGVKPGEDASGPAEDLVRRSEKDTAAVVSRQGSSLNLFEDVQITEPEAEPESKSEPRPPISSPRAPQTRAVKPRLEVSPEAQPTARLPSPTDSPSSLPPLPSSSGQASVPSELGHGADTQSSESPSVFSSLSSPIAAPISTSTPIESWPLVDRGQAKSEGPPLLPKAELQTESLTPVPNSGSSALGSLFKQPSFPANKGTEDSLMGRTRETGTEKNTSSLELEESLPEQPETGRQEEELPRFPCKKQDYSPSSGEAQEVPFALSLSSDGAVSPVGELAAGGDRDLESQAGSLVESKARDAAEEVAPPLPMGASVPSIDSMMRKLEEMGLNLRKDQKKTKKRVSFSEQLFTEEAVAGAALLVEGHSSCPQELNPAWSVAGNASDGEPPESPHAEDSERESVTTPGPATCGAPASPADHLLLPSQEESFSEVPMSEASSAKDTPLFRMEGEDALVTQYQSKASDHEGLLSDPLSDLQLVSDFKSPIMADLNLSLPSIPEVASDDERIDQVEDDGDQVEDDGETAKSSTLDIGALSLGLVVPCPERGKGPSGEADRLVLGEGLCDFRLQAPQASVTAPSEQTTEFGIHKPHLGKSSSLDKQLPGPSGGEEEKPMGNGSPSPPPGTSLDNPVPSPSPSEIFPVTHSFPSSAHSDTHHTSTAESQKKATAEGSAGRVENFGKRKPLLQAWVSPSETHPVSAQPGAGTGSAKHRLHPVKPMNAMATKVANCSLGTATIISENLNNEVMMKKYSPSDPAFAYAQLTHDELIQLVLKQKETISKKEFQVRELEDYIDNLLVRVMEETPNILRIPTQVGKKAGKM
UniProt P06400: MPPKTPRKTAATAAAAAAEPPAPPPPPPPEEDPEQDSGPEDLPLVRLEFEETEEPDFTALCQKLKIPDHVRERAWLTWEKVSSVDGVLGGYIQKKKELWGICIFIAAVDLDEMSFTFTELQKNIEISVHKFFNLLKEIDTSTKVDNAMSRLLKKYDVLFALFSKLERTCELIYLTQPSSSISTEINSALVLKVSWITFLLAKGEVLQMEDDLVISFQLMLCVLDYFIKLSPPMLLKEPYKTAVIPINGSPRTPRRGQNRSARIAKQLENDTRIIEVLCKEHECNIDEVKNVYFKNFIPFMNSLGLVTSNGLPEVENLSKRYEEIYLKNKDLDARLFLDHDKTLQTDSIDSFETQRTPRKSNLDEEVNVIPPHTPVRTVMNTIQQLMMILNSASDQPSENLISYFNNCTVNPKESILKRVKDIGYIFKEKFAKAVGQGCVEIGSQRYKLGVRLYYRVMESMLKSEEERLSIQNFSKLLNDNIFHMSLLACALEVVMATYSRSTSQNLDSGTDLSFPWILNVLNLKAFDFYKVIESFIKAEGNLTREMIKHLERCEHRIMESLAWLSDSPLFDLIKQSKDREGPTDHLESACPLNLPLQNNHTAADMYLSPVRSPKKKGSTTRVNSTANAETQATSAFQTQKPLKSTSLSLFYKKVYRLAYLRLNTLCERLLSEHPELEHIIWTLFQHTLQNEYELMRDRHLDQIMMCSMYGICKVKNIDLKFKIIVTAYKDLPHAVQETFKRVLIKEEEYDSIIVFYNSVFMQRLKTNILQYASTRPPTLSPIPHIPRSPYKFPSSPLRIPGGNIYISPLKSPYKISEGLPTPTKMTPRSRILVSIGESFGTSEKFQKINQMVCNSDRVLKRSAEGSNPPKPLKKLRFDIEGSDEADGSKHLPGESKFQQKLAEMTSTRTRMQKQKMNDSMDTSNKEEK
UniProt Q86X27: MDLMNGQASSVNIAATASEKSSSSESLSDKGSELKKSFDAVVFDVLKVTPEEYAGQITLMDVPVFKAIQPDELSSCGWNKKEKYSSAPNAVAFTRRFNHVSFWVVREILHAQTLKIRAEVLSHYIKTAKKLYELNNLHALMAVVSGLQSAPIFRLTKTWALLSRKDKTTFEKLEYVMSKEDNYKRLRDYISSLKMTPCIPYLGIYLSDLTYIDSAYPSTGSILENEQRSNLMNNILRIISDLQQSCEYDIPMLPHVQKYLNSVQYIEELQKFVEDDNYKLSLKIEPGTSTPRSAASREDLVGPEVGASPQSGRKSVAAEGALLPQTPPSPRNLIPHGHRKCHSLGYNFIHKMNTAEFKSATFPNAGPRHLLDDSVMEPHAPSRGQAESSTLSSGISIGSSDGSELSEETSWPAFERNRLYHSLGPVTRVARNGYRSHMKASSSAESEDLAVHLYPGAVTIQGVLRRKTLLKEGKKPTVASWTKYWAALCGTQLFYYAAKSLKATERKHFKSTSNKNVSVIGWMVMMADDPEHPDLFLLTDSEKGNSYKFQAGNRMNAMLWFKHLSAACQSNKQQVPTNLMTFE

The list shows a part of the results.

Compound in one test: C1=CC(=CC=C1C2=NC3=C(N2)C=C(C=C3)C(=O)N)OC4=CC=C(C=C4)Cl
Nature of the test: log2 fold change, soluble protein after heating vs DMSO (PISA); higher = thermal stabilisation; K562 cells, 10 uM, 30 min; active = over 0.2 and 3.5 SD of the protein, either way, in both replicates (recomputed). Summed up:
(§1)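 Soluble protein was quantified by TMTpro 16plex LC-MS/MS after channel sums were equalised. It was obtained as the supernatant after 21,000xg for 90 min from pooled aliquots of K562 cells (2×10^6 cells/mL, 10 μM compound, 30 min) heated for 3 min across 48°C-58°C and extracted in PBS with 0.5% NP-40 at 4°C. Thermal stability values are relative to control samples and come from duplicates. They are given as log2 fold changes.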
Regarding RAB3IL1 (UniProt Q8TBN0), the log2 fold change was inactive: 0.005.

As for RAP2C (UniProt Q9Y3L5), the log2 fold change was inactive: 0.01.

As for RABGAP1L isoform 3 (UniProt Q5R372), the log2 fold change is inactive: -0.021.

In the case of RABGGTA (UniProt Q92696), the log2 fold change was inactive: 0.001.

RAD50 isoform 2 (UniProt Q92878): the log2 fold change was inactive: 0.001.

As for RAP1B (UniProt F5GZG1), the log2 fold change is inactive: -0.016.

For the target RBM25 (UniProt P49756), the log2 fold change is inactive: -0.025.

Regarding RBBP7 (UniProt Q16576), the log2 fold change is inactive: -0.003.

Turning to R3HDM4 (UniProt Q96D70), the log2 fold change is inactive: 0.068.

As for RBM33 (UniProt Q96EV2), the log2 fold change is inactive: -0.011.

On to RBM28 (UniProt Q9NW13), for which the log2 fold change was inactive: 0.142.

With RBBP5 isoform 2 (UniProt Q15291), the log2 fold change is inactive: 0.18.

With RAB33B (UniProt Q9H082), the log2 fold change was inactive: -0.029.

As to RARS (UniProt P54136), the log2 fold change was inactive: -0.007.

Take RBM26 isoform 2 (UniProt Q5T8P6): the log2 fold change is inactive: -0.004.

On to RAD51B (UniProt O15315), for which the log2 fold change was inactive: -0.017.

Consider RAB5IF isoform 5 (UniProt Q9BUV8), for which the log2 fold change was inactive: 0.055.

Regarding RAB8B (UniProt Q92930), the log2 fold change was inactive: 0.028.

As for RACK1 (UniProt D6RHH4), the log2 fold change was inactive: 0.156.

As to RALA (UniProt P11233), the log2 fold change was inactive: -0.05.

Consider RAB3IL1 (UniProt E9PK89), for which the log2 fold change is inactive: -0.001.

On to RABGAP1L isoform 5 (UniProt Q5R372), for which the log2 fold change is inactive: 0.089.

As to RAVER1 (UniProt E9PAU2), the log2 fold change was inactive: 0.009.

Turning to RAI14 isoform 2 (UniProt Q9P0K7), the log2 fold change was inactive: 0.02.

Consider RALY (UniProt Q9UKM9), for which the log2 fold change was inactive: 0.189.

As to RAPGEF4 (UniProt Q8WZA2), the log2 fold change is inactive: 0.053.

With RB1CC1 (UniProt Q8TDY2), the log2 fold change is inactive: 0.046.

Regarding RAB30 (UniProt Q15771), the log2 fold change is inactive: -0.028.

Turning to RAB11FIP1 (UniProt Q6WKZ4), the log2 fold change was inactive: -0.039.

Regarding RB1 (UniProt P06400), the log2 fold change is inactive: 0.016.

With RAB3GAP2 (UniProt Q9H2M9), the log2 fold change is inactive: -0.058.

Turning to RAF1 isoform 2 (UniProt P04049), the log2 fold change was inactive: 0.04.

For the target RALGPS2 (UniProt Q86X27), the log2 fold change was inactive: 0.037.

Compound in a further test: C1=CC2=C(C=CC(=C2)/C=C\3/C(=O)NC(=NCC4=CC=CS4)S3)N=C1
Described as above. Summed up: as §1
On to RAB3IL1 (UniProt Q8TBN0), for which the log2 fold change was inactive: 0.019.

As for RAP2C (UniProt Q9Y3L5), the log2 fold change is inactive: -0.097.

On to RABGAP1L isoform 3 (UniProt Q5R372), for which the log2 fold change was inactive: 0.029.

Regarding RABGGTA (UniProt Q92696), the log2 fold change is inactive: 0.063.

For the target RAD50 isoform 2 (UniProt Q92878), the log2 fold change is inactive: 0.029.

RAP1B (UniProt F5GZG1): the log2 fold change is inactive: 0.077.

On to RBM25 (UniProt P49756), for which the log2 fold change was inactive: -0.014.

As to RBBP7 (UniProt Q16576), the log2 fold change is inactive: -0.018.

On to R3HDM4 (UniProt Q96D70), for which the log2 fold change was inactive: -0.142.

With RBM33 (UniProt Q96EV2), the log2 fold change is inactive: 0.

As to RBM28 (UniProt Q9NW13), the log2 fold change was inactive: -0.098.

Take RBBP5 isoform 2 (UniProt Q15291): the log2 fold change was inactive: 0.189.

On to RAB33B (UniProt Q9H082), for which the log2 fold change was inactive: -0.08.

With RARS (UniProt P54136), the log2 fold change was inactive: 0.019.

For RBM26 isoform 2 (UniProt Q5T8P6), the log2 fold change is inactive: -0.018.

Take RAD51B (UniProt O15315): the log2 fold change was inactive: -0.306.

For RAB5IF isoform 5 (UniProt Q9BUV8), the log2 fold change is inactive: -0.061.

With RAB8B (UniProt Q92930), the log2 fold change was inactive: -0.02.

On to RACK1 (UniProt D6RHH4), for which the log2 fold change is inactive: 0.415.

Turning to RALA (UniProt P11233), the log2 fold change is inactive: 0.005.

As for RAB3IL1 (UniProt E9PK89), the log2 fold change is inactive: 0.058.

With RABGAP1L isoform 5 (UniProt Q5R372), the log2 fold change was inactive: -0.007.

As for RAVER1 (UniProt E9PAU2), the log2 fold change was inactive: 0.002.

RAI14 isoform 2 (UniProt Q9P0K7): the log2 fold change was inactive: 0.072.

Consider RALY (UniProt Q9UKM9), for which the log2 fold change is inactive: -0.144.

Regarding RAPGEF4 (UniProt Q8WZA2), the log2 fold change is inactive: 0.19.

Consider RB1CC1 (UniProt Q8TDY2), for which the log2 fold change is inactive: 0.211.

RAB30 (UniProt Q15771): the log2 fold change was inactive: -0.033.

Consider RAB11FIP1 (UniProt Q6WKZ4), for which the log2 fold change was inactive: 0.02.

Consider RB1 (UniProt P06400), for which the log2 fold change is inactive: 0.124.

Turning to RAB3GAP2 (UniProt Q9H2M9), the log2 fold change is inactive: 0.035.

Turning to RAF1 isoform 2 (UniProt P04049), the log2 fold change is inactive: 0.197.

As for RALGPS2 (UniProt Q86X27), the log2 fold change is inactive: -0.079.

Compound in a further test: C1=CC2=NC=CN=C2C=C1/C=C/3\C(=O)NC(=O)S3
Described as above. The essentials:
as §1
For RAB3IL1 (UniProt Q8TBN0), the log2 fold change is inactive: 0.019.

Regarding RAP2C (UniProt Q9Y3L5), the log2 fold change was inactive: 0.026.

As for RABGAP1L isoform 3 (UniProt Q5R372), the log2 fold change was inactive: 0.033.

On to RABGGTA (UniProt Q92696), for which the log2 fold change is inactive: 0.025.

For the target RAD50 isoform 2 (UniProt Q92878), the log2 fold change is inactive: 0.

For the target RAP1B (UniProt F5GZG1), the log2 fold change was inactive: 0.024.

As for RBM25 (UniProt P49756), the log2 fold change is inactive: 0.055.

As to RBBP7 (UniProt Q16576), the log2 fold change was inactive: -0.029.

With R3HDM4 (UniProt Q96D70), the log2 fold change was inactive: 0.016.

Take RBM33 (UniProt Q96EV2): the log2 fold change was inactive: 0.01.

As for RBM28 (UniProt Q9NW13), the log2 fold change was inactive: 0.248.

For the target RBBP5 isoform 2 (UniProt Q15291), the log2 fold change is inactive: 0.045.

On to RAB33B (UniProt Q9H082), for which the log2 fold change is inactive: -0.012.

For the target RARS (UniProt P54136), the log2 fold change was inactive: 0.

On to RBM26 isoform 2 (UniProt Q5T8P6), for which the log2 fold change was inactive: 0.

Turning to RAD51B (UniProt O15315), the log2 fold change was inactive: 0.

Consider RAB5IF isoform 5 (UniProt Q9BUV8), for which the log2 fold change is inactive: 0.112.

On to RAB8B (UniProt Q92930), for which the log2 fold change was inactive: 0.145.

As for RACK1 (UniProt D6RHH4), the log2 fold change was inactive: -0.262.

As to RALA (UniProt P11233), the log2 fold change is inactive: 0.056.

In the case of RAB3IL1 (UniProt E9PK89), the log2 fold change was inactive: 0.104.

In the case of RABGAP1L isoform 5 (UniProt Q5R372), the log2 fold change is inactive: 0.045.

In the case of RAVER1 (UniProt E9PAU2), the log2 fold change was inactive: -0.06.

Turning to RAI14 isoform 2 (UniProt Q9P0K7), the log2 fold change was inactive: 0.06.

For RALY (UniProt Q9UKM9), the log2 fold change was inactive: 0.154.

With RAPGEF4 (UniProt Q8WZA2), the log2 fold change was inactive: 0.029.

In the case of RB1CC1 (UniProt Q8TDY2), the log2 fold change was inactive: -0.07.

As for RAB30 (UniProt Q15771), the log2 fold change is inactive: 0.035.

Turning to RAB11FIP1 (UniProt Q6WKZ4), the log2 fold change is inactive: -0.004.

Take RB1 (UniProt P06400): the log2 fold change was inactive: 0.04.

Take RAB3GAP2 (UniProt Q9H2M9): the log2 fold change was inactive: -0.011.

Consider RAF1 isoform 2 (UniProt P04049), for which the log2 fold change is inactive: 0.02.

For the target RALGPS2 (UniProt Q86X27), the log2 fold change is inactive: 0.111.
